This is one part of the list. Further columns of the screen follow, without active or inactive calls. The list favours compounds with an active or inconclusive main result. Potencies come from curve fits of mixed quality, noted in brackets.
Experiment: IkB Signaling
Details: ABC-DLBCL IkBa-CBG/CBR dual luciferase ratio (green luciferase fused to IkBa over red control in OCI-Ly3 lymphoma cells), 4 h; measured here: control luc red channel unless noted
Procedure, shortened: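 Curves were fitted separately to fusion (green), unfused (red) and ratio luminescence, then classed by r2, magnitude and activity. Cells: OCI-Ly3, 4 h compound plus doxycycline at 37C; 10 uM MG-132 defined full response.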
In the case of `Cc1nc2c(-c3ccc(F)cc3)c(C)nn2c(C)c1CCC(=O)NC(C)CCc1ccco1` (stereo not drawn), the AC50 is reported as 12.6 µM [falling, partial curve].
In the case of `CCN(C(=O)Cn1c(=O)oc2cc(S(=O)(=O)N3CCCCC3)ccc21)c1ccccc1`, the AC50 is reported as 39.8 µM [falling, single point].
With `CCc1cccc(NC(=O)CCc2c(C)nc3c(-c4ccccc4)c(C)nn3c2C)c1` the AC50 was 12.6 µM [falling, partial curve].
For `Cc1ccc(NC(=O)Cn2c(=O)n(CC(=O)NCCc3ccccc3)c(=O)c3ccccc32)cc1C`, the AC50 was 15.8 µM [falling, partial curve].
With `CCCn1nc(-c2nnc(-c3ccc(C)c(C)c3)o2)c2ccccc2c1=O` the AC50 was 0.631 µM [falling, full curve, poor fit].
In the case of `Cc1ccc(S(=O)(=O)c2cn(CC(=O)Nc3ccc(F)cc3)c3cc4c(cc3c2=O)OCO4)cc1`, the AC50 is reported as 15.8 µM [falling, partial curve].
For `Cc1ccc2cccc(NC(=O)c3cccc4c(Br)cccc34)c2n1`, the AC50 was 0.158 µM [rising, full curve].
In the case of `COc1ccc(C)cc1NC(=O)C(=O)NCC(c1cccnc1)N1CCN(c2ccccc2F)CC1` (stereo not drawn), the AC50 is reported as 25.1 µM [falling, single point].
For `Cc1cc(C)c2nc(N3CCCC(C(=O)NCc4ccccc4F)C3)sc2c1` (stereo not drawn), the AC50 was 10 µM [falling, partial curve].
With `Cc1ccccc1C(=O)Nc1cc2c(cc1N1CCCCC1)n(C)c(=O)n2C` the AC50 was 3.16 µM [rising, partial curve, poor fit].
For `c1ccc2c(Nc3ccncc3)nc(-c3ccoc3)nc2c1`, the AC50 was 3.16 µM [falling, partial curve] [measured here: IkB-luc green channel].
In the case of `COc1cccc(C(=O)Oc2c(Sc3ccc(C)cc3)c(C)nn2C(C)(C)C)c1OC`, the AC50 is reported as 3.16 µM [falling, full curve].
For `CC1CCCN(c2nc3c(c(=O)n(C)c(=O)n3C)n2Cc2ccccc2)C1` (stereo not drawn), the AC50 was 31.6 µM [falling, single point].
For `CCOc1ccccc1NC(=O)c1ccc(F)c(S(=O)(=O)N2CCN(c3ccc(F)cc3)CC2)c1`, the AC50 was 20 µM [falling, partial curve].
For `O=C(NCc1nnc(SCC(=O)N2CCC(Cc3ccccc3)CC2)o1)c1ccccc1F`, the AC50 was 12.6 µM [falling, partial curve].
With `O=C1COc2ccc(C(=O)CSc3nnc(Cc4cccs4)n3-c3ccccc3)cc2N1` the AC50 was 39.8 µM [falling, partial curve].
In the case of `Cc1cccc(C(=O)N2CCc3cc(CNC(=O)CSc4ccccc4)ccc32)c1`, the AC50 is reported as 20 µM [falling, single point].
For `COc1cccc(-n2c(SCc3ccc(F)cc3)nc3c([nH]c4ccccc43)c2=O)c1`, the AC50 was 10 µM [falling, partial curve].
With `COC(=O)c1ccc(NC(=O)CN(C)S(=O)(=O)c2ccc(Br)s2)cc1` the AC50 was 20 µM [falling, partial curve].
In the case of `Cc1nn2c(C)c(C(=O)NCc3ccc(OC(C)C)cc3)cnc2c1-c1ccc(F)cc1`, the AC50 is reported as 15.8 µM [falling, single point].
In the case of `CCn1c(=O)cc(OCC(=O)N2CCN(c3cccc(C)c3C)CC2)c2ccccc21`, the AC50 is reported as 12.6 µM [falling, partial curve].
In the case of `Cc1cccc(NC(=O)CN2C(=O)C(c3ccc(F)cc3)=NC23CCCCCC3)c1`, the AC50 is reported as 15.8 µM [falling, partial curve].
For `CC(=O)c1c(C)oc2c1cc(NS(=O)(=O)c1ccc(C(C)(C)C)cc1)c1ccccc12`, the AC50 was 12.6 µM [falling, partial curve].
In the case of `CNCCNS(=O)(=O)c1cccc2cnccc12`, the AC50 is reported as 31.6 µM [falling, partial curve, poor fit] [measured here: IkB-luc green channel].
With `Cc1ccc(CNC(=O)C(C)n2nc(C)c3sc4ccccc4c3c2=O)cc1` (stereo not drawn) the AC50 was 5.01 µM [falling, partial curve].
For `Cc1ccc(CNC(=O)c2ccc(Nc3nc4ccccc4n4nnnc34)cc2)cc1`, the AC50 was 1 µM [falling, full curve].
In the case of `Cc1ccc(NC(=O)c2oc3c(c2C)-c2[nH]ncc2CC3)c(Cl)c1`, the AC50 is reported as 39.8 µM [falling, single point].
For `CC(C)c1ccc(NS(=O)(=O)c2cc(Br)cc3c2N(C(=O)C2CC2)CC3)cc1`, the AC50 was 7.94 µM [falling, full curve].
For `Cc1ccc(S(=O)(=O)N(CCc2ccccc2)CC(=O)Nc2ccccc2C)cc1`, the AC50 was 5.01 µM [falling, single point].
For `Cc1ccc(C(=O)N2CCn3c4c(c5cc(C)ccc53)CCCC42)cc1` (stereo not drawn), the AC50 was 7.94 µM [falling, full curve].
In the case of `COc1ccc(CCNC(=O)c2ccc3c(c2)N(Cc2ccccc2)CCS3)cc1OC`, the AC50 is reported as 12.6 µM [falling, partial curve].
In the case of `Cc1cc(C)cc(NS(=O)(=O)c2ccc3[nH]cc(C(=O)NCCc4ccccc4)c(=O)c3c2)c1`, the AC50 is reported as 1 µM [falling, full curve, poor fit].
For `O=C(Cc1cccs1)Nc1nc(-c2ccccc2)cs1`, the AC50 was 3.98 µM [falling, partial curve].
In the case of `COc1ccccc1CNC(=O)c1cc2c(s1)-c1ccc(Cl)cc1SC2`, the AC50 is reported as 0.398 µM [rising, partial curve, poor fit].
With `CCOc1cccc(CC(=O)N2CCc3c([nH]c4ccc(OC)cc34)C2c2ccc(F)cc2)c1OCC` (stereo not drawn) the AC50 was 15.8 µM [falling, partial curve].
With `COc1ccccc1N1CCN(C(CNC(=O)C(=O)NCc2cccnc2)c2cccnc2)CC1` (stereo not drawn) the AC50 was 12.6 µM [falling, partial curve].
For `CCCCOC(=O)CN1C(=O)c2ccc(C(=O)OCCCC)cc2C1=O`, the AC50 was 20 µM [rising, partial curve] [measured here: IkB-luc green channel].
For `CCOC(=O)c1c(NC(=O)c2cc(-c3ccc(OC)c(OC)c3)on2)sc(C)c1C`, the AC50 was 0.631 µM [rising, full curve].
